The values below come from paper PMC10175487.

Results are given in words; binding and its absence hold for the method and conditions named. Binding seen in cells or lysates may run through a third protein. Some entries that bind do so weakly or less than the wild type.

This assay addresses RIPK3 (mouse (endogenous in BMDMs)), Q9QZL0. The assay is described as follows: co-IP; necrosome: immunoprecipitation of endogenous RIPK3 (anti-RIPK3, protein A/G agarose) from BMDMs treated with TNFα/SM-164/zVAD, vehicle or UDP-GlcA; 0.5% NP-40 lysis buffer, 4 °C; immunoblotting. To be noted: remark: other sources report otherwise. (In general: A western blot detects proteins with antibodies after separation by electrophoresis.)

B1: RIPK1, Q60855 1-656 (protein)
chain: MQPDMSLDNIKMASSDLLEKTDLDSGGFGKVSLCYHRSHGFVILKKVYTGPNRAEYNEVLLEEGKMMHRLRHSRVVKLLGIIIEEGNYSLVMEYMEKGNLMHVLKTQIDVPLSLKGRIIVEAIEGMCYLHDKGVIHKDLKPENILVDRDFHIKIADLGVASFKTWSKLTKEKDNKQKEVSSTTKKNNGGTLYYMAPEHLNDINAKPTEKSDVYSFGIVLWAIFAKKEPYENVICTEQFVICIKSGNRPNVEEILEYCPREIISLMERCWQAIPEDRPTFLGIEEEFRPFYLSHFEEYVEEDVASLKKEYPDQSPVLQRMFSLQHDCVPLPPSRSNSEQPGSLHSSQGLQMGPVEESWFSSSPEYPQDENDRSVQAKLQEEASYHAFGIFAEKQTKPQPRQNEAYNREEERKRRVSHDPFAQQRARENIKSAGARGHSDPSTTSRGIAVQQLSWPATQTVWNNGLYNQHGFGTTGTGVWYPPNLSQMYSTYKTPVPETNIPGSTPTMPYFSGPVADDLIKYTIFNSSGIQIGNHNYMDVGLNSQPPNNTCKEESTSRHQAIFDNTTSLTDEHLNPIRENLGRQWKNCARKLGFTESQIDEIDHDYERDGLKEKVYQMLQKWLMREGTKGATVGKLAQALHQCCRIDLLNHLIRASQS
As for B1, the binding entry is given as “binds”.
